Experimental data as given in PubChem BioAssay AID504810 (National Center for Advancing Translational Sciences (NCATS), 2011).
The campaign covered roughly 330,000 compounds. About 670 (0.2%) were called active. Inconclusive results, whose numbers are uncertain, are shown with a selection of clear calls.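 The calls were made as follows: active = activity change below a set negative limit, meaning inhibition stronger than a set level (cut at about -70% in these data); inconclusive = activity change between two set negative limits; inactive = the rest.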

By UniProt entry, the sequences of proteins in these tests, tags left out.
UniProt P16473, whole entry, looked up: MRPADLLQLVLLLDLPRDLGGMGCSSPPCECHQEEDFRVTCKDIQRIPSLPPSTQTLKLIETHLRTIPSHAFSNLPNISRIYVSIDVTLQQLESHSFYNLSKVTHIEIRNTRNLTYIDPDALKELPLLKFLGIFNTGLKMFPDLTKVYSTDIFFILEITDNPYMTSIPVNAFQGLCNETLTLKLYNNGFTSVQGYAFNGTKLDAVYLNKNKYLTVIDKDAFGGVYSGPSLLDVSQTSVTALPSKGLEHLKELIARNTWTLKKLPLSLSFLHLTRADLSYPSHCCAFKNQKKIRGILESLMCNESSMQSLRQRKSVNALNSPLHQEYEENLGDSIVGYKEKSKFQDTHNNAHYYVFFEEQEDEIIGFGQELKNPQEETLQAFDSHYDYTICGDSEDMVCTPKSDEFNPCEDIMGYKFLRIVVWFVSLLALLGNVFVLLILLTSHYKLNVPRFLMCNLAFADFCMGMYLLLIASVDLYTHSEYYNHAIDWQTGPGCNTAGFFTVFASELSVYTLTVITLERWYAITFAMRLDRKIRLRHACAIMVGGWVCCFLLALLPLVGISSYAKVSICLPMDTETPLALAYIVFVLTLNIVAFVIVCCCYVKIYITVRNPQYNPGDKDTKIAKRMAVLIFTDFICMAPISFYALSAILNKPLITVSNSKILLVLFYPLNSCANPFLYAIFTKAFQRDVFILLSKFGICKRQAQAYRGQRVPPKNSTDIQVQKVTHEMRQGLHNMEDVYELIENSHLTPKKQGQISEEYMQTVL

Target: Thyrotropin receptor (Homo sapiens) (UniProt P16473)
Experiment: Antagonists of the Thyroid Stimulating Hormone Receptor: HTS campaign
Conditions: TSHR-expressing cells, TSH-stimulated cAMP HTRF, 2 h; at 11.5 µM; stronger effect = lower value
Procedure, shortened: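 Cell-based HTRF cAMP assay; TSHR cells + compound, TSH EC80 (4nM final), 2 h, 37 deg C. Lysis with anti-cAMP cryptate and cAMP-d2, 30 min RT, read 665/620 nm.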
% is scaled to controls: 0 for no effect and ±100 for the full control effect.

Row | SMILES | activity change, negative = inhibition
1 | CCOC(=O)c1ccc(N=c2sc(C(=O)OC)cc(=O)n2Cc2ccco2)cc1 | inconclusive: -59.4%
2 | CCOc1cc(/C=C2\SC(N)=NC2=O)ccc1O | inconclusive: -57.6%
3 | O=[N+]([O-])c1c(Nc2ccc(O)cc2)cc(Cl)c2nonc12 | active: -102%
4 | CCOC(=O)N1CCN(C(=O)c2ccc(NS(=O)(=O)c3ccc(C)cc3)cc2)CC1 | inconclusive: -62.8%
5 | O=C(OCc1ccccc1)N1CCOCCOCCN(C(=O)OCc2ccccc2)CCOCCOCC1 | inconclusive: -63.3%
6 | COCCNC(=O)c1cnn2c1NC(c1ccco1)CC2C(F)(F)F (stereo not drawn) | inactive: -7.21%
7 | COc1ccc2ccccc2c1/C=N/NC(=O)c1nnn(-c2nonc2N)c1C(C)C | inconclusive: -65.8%
8 | O=C1NC(=Nc2ccccc2Cl)S/C1=C\c1cc([N+](=O)[O-])ccc1O | inconclusive: -66.3%
9 | Cc1ccc(-n2cccc2/C=C2/C(=N)N3C(=NC2=O)SN=C3S(C)(=O)=O)cc1Cl | inconclusive: -66.9%
10 | CCOC(=O)Cc1csc(NC(=S)NC(=O)c2cc(OC)c(OC)c(OC)c2)n1 | inactive: 10.1%
11 | COc1ccc(/C=N/n2c(SC)nnc2-c2ccccc2)c(OC)c1OC | inactive: 4.11%
12 | CCCN(CCC)CCCNC(=O)c1cc2c(=O)[nH]c3ccccc3c2s1 | inconclusive: -68.6%
13 | COc1cc(/C=C2/SC(=S)NC2=O)ccc1OS(=O)(=O)c1ccc(C)cc1 | inconclusive: -67.6%
14 | CC(=O)/C(=N/Nc1ccc(C)cc1)Sc1nnc(CCc2ccccc2)n1-c1ccccc1 | inactive: 7.1%
15 | O=C(Nc1ccccc1Cc1ccccc1)c1ccccc1NS(=O)(=O)c1ccc(Cl)s1 | inconclusive: -51.7%
16 | O=C(O)c1ccc(S(=O)(=O)N(Cc2ccccc2)Cc2ccccc2)cc1 | inconclusive: -52.4%
17 | O=C(Cc1ccc(Cl)cc1)Nc1cccc(S(=O)(=O)N2CCCCC2)c1 | inconclusive: -68.6%
18 | Cc1scc(-c2n[nH]c(=S)n2Cc2ccccc2)c1C | inconclusive: -61.6%
19 | COCCCNC(=S)NCCCNc1nc2cc(C)cc(C)c2cc1C#N | inactive: -14.2%
20 | CC(=O)N/C(=C\c1ccc(Cl)cc1)C(=O)O | inconclusive: -63%
21 | COc1ccccc1Nc1nc(N)nc(CN2CCCCC2)n1 | inactive: 9.01%
22 | Cc1c(-c2ccccc2)nc2ccccc2c1C(=O)Oc1ccc([N+](=O)[O-])cc1 | inconclusive: -51%

Row | SMILES | activity change, negative = inhibition
23 | Cc1nnc(SCC(=O)Nc2nonc2C)s1 | inconclusive: -56.8%
24 | Cc1cccc(C(=O)NNC(=O)c2c(-c3ccccc3Cl)noc2C)c1O | inactive: -8.5%
25 | Cc1ccc(-n2nc3c(=O)n(C(C)C(=O)NC4CC4)nc(C)c3c2C)cc1 (stereo not drawn) | active: -114%
26 | O=C(Nc1ccc(C(F)(F)F)cc1)c1csc(-c2ccncc2)n1 | inconclusive: -51.4%
27 | Cc1ccc2c(c1)nnn2C1CCN(S(=O)(=O)c2ccc(C(=O)N3C(C)CCCC3C)cc2)CC1 (stereo not drawn) | inactive: -43.5%
28 | Cc1cccc(NC(=S)Nc2ccc(Oc3ccccc3)cc2)n1 | inactive: -34.9%
29 | CC(C)OP(=O)(OC(C)C)C1(NS(=O)(=O)c2ccc(Cl)cc2)C=C(Cl)C(=O)C(Cl)=C1 | inactive: -13%
30 | CC1CC(C)CN(S(=O)(=O)c2ccc(C(=O)Nc3nnc(C4CC4)o3)cc2)C1 (stereo not drawn) | inconclusive: -51%
31 | Cn1c(N)c(-c2ccccc2)c2ccc([N+](=O)[O-])cc2c1=O | inconclusive: -59.1%
32 | CCOc1ccccc1N1CCN(C(=O)CCCN2C(=O)c3cccc4cccc(c34)C2=O)CC1 | active: -81%
33 | Cc1c(C(=O)NCc2ccc3c(c2)OCO3)sc2nc(-c3ccccc3)cn12 | inconclusive: -50.7%
34 | COC(=O)c1[nH]c2ccc(F)cc2c1NC(=O)CCN1CCN(Cc2ccc3c(c2)OCO3)CC1 | inactive: -10.9%
35 | COC(=O)c1sc2ccccc2c1-n1cccc1C(=O)C(=O)Nc1ccc(C)cc1 | inactive: -23.9%
36 | Clc1cccc(C2Nc3cccc4cccc(c34)N2)c1Cl | inconclusive: -50.1%
37 | CC1=NN(c2ccccc2)C(=O)C1C=Nc1ccc(N(C)C)cc1 (stereo not drawn) | inconclusive: -51.3%
38 | CC(C)C1S/C(=N/N=C/c2ccco2)NC1=O (stereo not drawn) | inactive: 17.9%
39 | Cc1cccc(C(=O)c2c(N)sc3c2CCCC3)c1 | inconclusive: -52.4%
40 | COc1cccc(N(CC(=O)NC(C)c2ccccc2)S(C)(=O)=O)c1 (stereo not drawn) | inactive: 20.7%
41 | Cc1c(C(=O)OC/C(O)=C(\C#N)c2nc3ccccc3[nH]2)oc2ccc(Br)cc12 | inconclusive: -57.3%
42 | O=C(CSc1ncnc2ccccc12)c1ccc2c(c1)OCCO2 | inconclusive: -67.1%
43 | CCC(=O)c1ccc(OCC(=O)OC(C)C(=O)NCc2ccc3c(c2)OCO3)cc1 (stereo not drawn) | inactive: 0.135%

Reformatted with tabs: ten of the compounds above
Row	SMILES	activity change, negative = inhibition
1	CCOC(=O)c1ccc(N=c2sc(C(=O)OC)cc(=O)n2Cc2ccco2)cc1	inconclusive: -59.4%
7	COc1ccc2ccccc2c1/C=N/NC(=O)c1nnn(-c2nonc2N)c1C(C)C	inconclusive: -65.8%
8	O=C1NC(=Nc2ccccc2Cl)S/C1=C\c1cc([N+](=O)[O-])ccc1O	inconclusive: -66.3%
10	CCOC(=O)Cc1csc(NC(=S)NC(=O)c2cc(OC)c(OC)c(OC)c2)n1	inactive: 10.1%
14	CC(=O)/C(=N/Nc1ccc(C)cc1)Sc1nnc(CCc2ccccc2)n1-c1ccccc1	inactive: 7.1%
24	Cc1cccc(C(=O)NNC(=O)c2c(-c3ccccc3Cl)noc2C)c1O	inactive: -8.5%
33	Cc1c(C(=O)NCc2ccc3c(c2)OCO3)sc2nc(-c3ccccc3)cn12	inconclusive: -50.7%
35	COC(=O)c1sc2ccccc2c1-n1cccc1C(=O)C(=O)Nc1ccc(C)cc1	inactive: -23.9%
37	CC1=NN(c2ccccc2)C(=O)C1C=Nc1ccc(N(C)C)cc1 (stereo not drawn)	inconclusive: -51.3%
41	Cc1c(C(=O)OC/C(O)=C(\C#N)c2nc3ccccc3[nH]2)oc2ccc(Br)cc12	inconclusive: -57.3%
